Assay results reported in US9089133B2, “Insecticide for agricultural or horticultural use and method of use thereof” (MITSUI CHEMICALS, INC., priority 2003, dated 2015).
Some entries share one result that the patent states for a list of compounds.

Assays:
[1] = test system: Common Cutworm (Spodoptera litura); assay: Insecticidal test for common cutworm (cabbage leaf dip); format: in vivo; conditions: 1000 ppm; cabbage leaf immersed 30 seconds; 2nd-instar larvae; 25° C.; three days after
Protocol: Insecticidal Test for Common Cutworm (Spodoptera litura)
(§1) A cabbage leaf piece was immersed in a solution prepared by diluting a test compound to a predetermined concentration for 30 seconds, and then dried in air. Then, the cabbage leaf piece was placed in a polyethylene cup of 7 cm-size in which 2nd-instar larvae of common cutworm were placed. The cup was allowed to stand in a thermostatic chamber at 25° C. Three days after, the numbers of living and dead larvae were counted. The test was carried out in two replications each containing five larvae.

[2] = test system: Diamondback Moth (Plutella xylostella); assay: Insecticidal test for diamondback moth (cabbage leaf dip); format: in vivo; conditions: 1000 ppm; cabbage leaf immersed 30 seconds; 2nd-instar larvae; 25° C.; three days after
Protocol: Insecticidal Test for Diamondback Moth (Plutella xylostella)
as §1, with “cabbage leaf pieces was immersed” for “cabbage leaf piece was immersed”, “Then, the leaf piece” for “Then, the cabbage leaf piece”

## Cc1c(I)c(C(F)(C(F)(F)F)C(F)(F)F)cc(Cl)c1NC(=O)c1cccc(NC(=O)OCC(Cl)(Cl)Cl)c1 [compound 219]
[1]
  mortality: ≥ 70%
[2]
  mortality: ≥ 70%

## Cc1cc(C(F)(C(F)(F)F)C(F)(F)C(F)(F)F)cc(C)c1NC(=O)c1cccc(NC(=O)OCC(F)(F)F)c1 (stereo not drawn) [compound 256]
[1]
  mortality: ≥ 70%
[2]
  mortality: ≥ 70%

## O=C(Nc1cccc(C(=O)Nc2c(Cl)cc(C(F)(F)F)cc2C(F)(F)F)c1)OCC(Cl)(Cl)Cl [compound 231]
[1]
  mortality: ≥ 70%
[2]
  mortality: ≥ 70%

## Cc1cc(C(F)(F)C(F)(F)C(F)(F)C(F)(F)F)cc(C)c1NC(=O)c1cccc(NC(=O)OCC(Cl)(Cl)Cl)c1 [compound 234]
[1]
  mortality: ≥ 70%
[2]
  mortality: ≥ 70%

## Cc1cc(C(F)(C(F)(F)F)C(F)(F)F)c2ccccc2c1NC(=O)c1cccc(NC(=O)OC(C)C)c1 [compound 920]
[1]
  mortality: ≥ 70%
[2]
  mortality: ≥ 70%

## O=C(Nc1cccc(C(=O)Nc2c(Br)cc(Br)cc2C(F)(F)F)c1)OCC(Cl)(Cl)Cl [compound 902]
[1]
  mortality: ≥ 70%
[2]
  mortality: ≥ 70%

## Cc1cc(C(F)(C(F)(F)F)C(F)(F)C(F)(F)F)cc(C)c1NC(=O)c1cccc(NC(=O)OC(C)C)c1 (stereo not drawn) [compound 253]
[1]
  mortality: ≥ 70%
[2]
  mortality: ≥ 70%

## Cc1cc(C(F)(C(F)(F)F)C(F)(F)F)cc(C)c1NC(=O)c1cccc(NC(=O)OC(CCl)CCl)c1 [compound 134]
[1]
  mortality: ≥ 70%
[2]
  mortality: ≥ 70%

## Cc1cc(NC(=O)OCC(Cl)(Cl)Cl)cc(C(=O)Nc2c(C)cc(C(F)(C(F)(F)F)C(F)(F)F)cc2C)c1 [compound 1923]
[1]
  mortality: ≥ 70%
[2]
  mortality: ≥ 70%

## CC(C)OC(=O)Nc1cccc(C(=O)Nc2c(Br)cc(C(F)(F)F)cc2C(F)(F)F)c1 [compound 224]
[1]
  mortality: ≥ 70%
[2]
  mortality: ≥ 70%

## Cc1cc(C(F)(C(F)(F)F)C(F)(F)F)cc(C)c1N(C)C(=O)c1cccc(NC(=O)OCC(Cl)(Cl)Cl)c1 [compound 1951]
[1]
  mortality: ≥ 70%
[2]
  mortality: ≥ 70%

## CC[S+]([O-])CCOC(=O)Nc1cccc(C(=O)Nc2c(C)cc(C(F)(C(F)(F)F)C(F)(F)F)cc2C)c1 (stereo not drawn) [compound 112]
[1]
  mortality: ≥ 70%
[2]
  mortality: ≥ 70%

## O=C(Nc1cccc(C(=O)Nc2c(F)c(F)c(C(F)(F)F)c(F)c2F)c1)OCC(Cl)(Cl)Cl [compound 235]
[1]
  mortality: ≥ 70%
[2]
  mortality: ≥ 70%

## Cc1cc(C(F)(C(F)(F)F)C(F)(F)F)ccc1NC(=O)c1cc(NC(=O)OCC(Cl)(Cl)Cl)ccc1Br [compound 1943]
[1]
  mortality: ≥ 70%

## Cc1cc(C(F)(C(F)(F)F)C(F)(F)F)ccc1NC(=O)c1cc(NC(=O)OC(C)C)cc(C(F)(F)F)c1 [compound 1924]
[1]
  mortality: ≥ 70%

## Cc1cc(C(F)(C(F)(F)F)C(F)(F)F)cc(C)c1NC(=O)c1cccc(NC(=O)OCC(C)C)c1 [compound 64]
[1]
  mortality: ≥ 70%

## Cc1cc(C(F)(C(F)(F)F)C(F)(F)F)ccc1NC(=O)c1cc(NC(=O)OC(C)C)ccc1Br [compound 1942]
[1]
  mortality: ≥ 70%

## O=C(Nc1cccc(C(=O)Nc2ccc(C3CCCCC3)cc2)c1)OCC(Cl)(Cl)Cl [compound 847]
[1]
  mortality: ≥ 70%

## Cc1cc(-c2ccc(F)cc2)cc(C)c1NC(=O)c1cccc(NC(=O)OCC(Cl)(Cl)Cl)c1 [compound 890]
[1]
  mortality: ≥ 70%

## Cc1cc(C(F)(C(F)(F)F)C(F)(F)F)cc(C)c1NC(=O)c1cccc(NC(=O)OCC(F)(F)C(F)(F)F)c1 [compound 124]
[1]
  mortality: ≥ 70%

## O=C(Nc1cccc(C(=O)Nc2c(Br)cc(SC(F)(F)C(F)(F)C(F)(F)C(F)(F)F)cc2Br)c1)OCC(Cl)(Cl)Cl [compound 903]
[1]
  mortality: ≥ 70%

## O=C(Nc1cccc(C(=O)Nc2c(F)c(F)c(F)c(F)c2F)c1)OCC(Cl)(Cl)Cl [compound 916]
[1]
  mortality: ≥ 70%

## Cc1cc(-c2ccc(F)c(F)c2)cc(C)c1NC(=O)c1cccc(NC(=O)OCC(Cl)(Cl)Cl)c1 [compound 891]
[1]
  mortality: ≥ 70%

## Cc1cc(C(F)(C(F)(F)F)C(F)(F)F)cc(C)c1NC(=O)c1cccc(NC(=O)OC(C)(C)C(Cl)(Cl)Cl)c1 [compound 135]
[1]
  mortality: ≥ 70%

## Cc1cc(C(F)(C(F)(F)F)C(F)(F)F)cc(C)c1NC(=O)c1cccc(NC(=O)OCc2ccc(Cl)cc2)c1 [compound 91]
[1]
  mortality: ≥ 70%

## Cc1ccc(NC(=O)OC(C)C)cc1C(=O)Nc1c(C)cc(C(F)(C(F)(F)F)C(F)(F)F)cc1C [compound 1932]
[1]
  mortality: ≥ 70%

## Cc1cc(C(F)(C(F)(F)F)C(F)(F)F)ccc1NC(=O)c1cc(NC(=O)OCC(Cl)(Cl)Cl)ccc1I [compound 1944]
[1]
  mortality: ≥ 70%

## Cc1cc(SC(F)(F)C(F)(F)C(F)(F)F)ccc1NC(=O)c1cccc(NC(=O)OCC(Cl)(Cl)Cl)c1 [compound 770]
[1]
  mortality: ≥ 70%

## Cc1cc(OC(F)(F)F)cc(Cl)c1NC(=O)c1cccc(NC(=O)OC(C)C)c1 [compound 844]
[1]
  mortality: ≥ 70%

## O=C(Nc1cccc(C(=O)Nc2cc(C(F)(F)F)cc(C(F)(F)F)c2)c1)OCC(Cl)(Cl)Cl [compound 864]
[1]
  mortality: ≥ 70%

## Cc1cc(C(F)(C(F)(F)F)C(F)(F)F)ccc1NC(=O)c1cc(NC(=O)OCC(Cl)(Cl)Cl)cc(C(F)(F)F)c1 [compound 1925]
[1]
  mortality: ≥ 70%

## CCCCc1cc(C(F)(C(F)(F)F)C(F)(F)F)cc(I)c1NC(=O)c1cccc(NC(=O)OCC(Cl)(Cl)Cl)c1 [compound 855]
[1]
  mortality: ≥ 70%

## Cc1cc(C(F)(F)C(F)(F)C(F)(F)F)cc(C)c1NC(=O)c1cccc(NC(=O)OC(C)C)c1 [compound 225]
[1]
  mortality: ≥ 70%

## CCOC(=O)Nc1cccc(C(=O)Nc2c(C)cc(C(F)(C(F)(F)F)C(F)(F)F)cc2C(C)C)c1 [compound 165]
[1]
  mortality: ≥ 70%

## Cc1cc(C(F)(C(F)(F)F)C(F)(F)F)cc(C)c1NC(=O)c1cc(NC(=O)OCC(Cl)(Cl)Cl)ccc1Cl [compound 1941]
[1]
  mortality: ≥ 70%

## Cc1cc(C(F)(C(F)(F)F)C(F)(F)F)cc(C)c1NC(=O)c1cccc(NC(=O)OCc2ccccc2)c1 [compound 81]
[1]
  mortality: ≥ 70%

## Cc1cc(C(F)(C(F)(F)F)C(F)(F)F)cc(C)c1NC(=O)c1cccc(NC(=O)OC(C)C(F)(F)C(F)(F)F)c1 (stereo not drawn) [compound 125]
[1]
  mortality: ≥ 70%

## Cc1cc(C(F)(C(F)(F)F)C(F)(F)F)cc(C)c1NC(=O)c1cccc(NC(=O)OCc2ccc(C(F)(F)F)cc2)c1 [compound 83]
[1]
  mortality: ≥ 70%

## CCC(C)c1cc(C(F)(C(F)(F)F)C(F)(F)F)ccc1NC(=O)c1cccc(NC(=O)OCC(Cl)(Cl)Cl)c1 (stereo not drawn) [compound 857]
[1]
  mortality: ≥ 70%

## CCc1cc(C(F)(C(F)(F)F)C(F)(F)F)ccc1NC(=O)c1cccc(NC(=O)OCC(Cl)(Cl)Cl)c1 [compound 189]
[1]
  mortality: ≥ 70%

## Cc1cc(C(F)(C(F)(F)F)C(F)(F)F)ccc1NC(=O)c1cc(NC(=O)OCC(Cl)(Cl)Cl)ccc1F [compound 1935]
[1]
  mortality: ≥ 70%

## CCCCc1cc(C(F)(C(F)(F)F)C(F)(F)F)cc(Br)c1NC(=O)c1cccc(NC(=O)OCC(Cl)(Cl)Cl)c1 [compound 210]
[1]
  mortality: ≥ 70%

## Cc1cc(C(F)(C(F)(F)F)C(F)(F)F)cc(C)c1NC(=O)c1cccc(NC(=O)OCc2cccc(Cl)c2)c1 [compound 90]
[1]
  mortality: ≥ 70%

## Cc1cc(C#N)cc(Cl)c1NC(=O)c1cccc(NC(=O)OC(C)C)c1 [compound 843]
[1]
  mortality: ≥ 70%
